These results are taken from PubChem BioAssay AID662 (National Center for Advancing Translational Sciences (NCATS), 2007).

Some of the results follow. Further columns of the screen follow, without active or inactive calls. The list favours compounds with an active or inconclusive main result. Words in brackets tell the shape of the fitted curve; partial curves, single points and poor fits give uncertain potencies.

As a reminder, the AC50 is the concentration at which the activity in the assay is half-maximal.

A short description of this assay: Cell signaling CRE-BLA (Fsk stim). The following applies: CHO CRE-bla reporter (cAMP response element driving beta-lactamase), forskolin EC10, beta-lactamase ratio; measured here: 460 nm blue channel. An outline of the steps: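 Forskolin analogue NKH 477 at EC10 stimulated CRE-driven beta-lactamase in CHO cells alongside compound dilution series. Beta-lactamase was measured with CCF4, excitation 405 nm, emission ratio 460/530 nm.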
Consider `Cn1c(=O)c(CCc2ccccc2)nc2cnc(Oc3ccccc3)nc21`, for which the AC50 is 15.8 µM [rising, partial curve].
Then `CCn1cc(C(=O)NCCN(C)CCc2ccccc2)c(=O)c2cc(S(=O)(=O)N(C)C)ccc21`, with 25.1 µM [rising, single point].
As for `CCOc1cc(CN2CCN(c3ccc(C(C)=O)cc3)CC2)ccc1OC`, the AC50 was 1 µM [falling, partial curve, poor fit].
Then `CCn1c2ccccc2c2nnc(SCC(=O)Nc3ncccn3)nc21`, with 12.6 µM [rising, partial curve].
Take `C/C=C/Cn1c(SCCCc2ccccc2)nc2c1c(=O)[nH]c(=O)n2C`: the AC50 was 25.1 µM [falling, single point].
For the molecule `CC1=C(/C=C/C(C)=C/C=C/C(C)=C/C=O)C(C)(C)CCC1`, the AC50 was 15.8 µM [falling, partial curve].
As for `CCOc1ccc(N2CC(C(=O)NCc3ccc(F)cc3)CC2=O)cc1` (stereo not drawn), the AC50 is 5.01 µM [falling, partial curve].
Regarding `Cc1ccc(-n2nnc3c(=O)n(Cc4cccc(C)c4)cnc32)cc1`, the AC50 is 10 µM [rising, partial curve].
Then `Cc1cc2ccccc2n1CCNC(=O)C(C)C`, with 12.6 µM [rising, partial curve].
Then `CCc1nnc(NC(=O)C2Cc3ccccc3CN2S(=O)(=O)c2cccs2)s1` (stereo not drawn), with 0.02 µM [falling, full curve, poor fit]; and `COC(=O)c1cc(C(=O)OC)cc(-n2c(C)cc(C(=O)CC#N)c2C)c1`, with 10 µM [rising, single point].
For the molecule `c1cnc(Oc2ccc(-c3nnco3)cc2)cn1`, the AC50 was 0.0251 µM [falling, full curve, poor fit].
Then `Cn1cccc1-c1nc2ccc(NC(=O)c3ccco3)cc2[nH]1`, with 6.31 µM [rising, partial curve]; and `COc1ccc(NS(=O)(=O)c2ccc3oc(Nc4ccc5c(c4)OCCO5)nc3c2)cc1`, with 0.126 µM [falling, full curve].
Regarding `CCC(=O)n1nc(-c2ccc(OC)cc2)nc1N`, the AC50 is 25.1 µM [rising, single point].
On to `O=C(CSc1nnc(-c2cnccn2)n1Cc1ccco1)c1ccc2ccccc2c1`, for which the AC50 is 25.1 µM [rising, single point].
On to `Cc1cc(NC(=O)CSc2nc(C(C)C)nc3sc(C)c(C)c23)no1`, for which the AC50 is 12.6 µM [rising, partial curve].
On to `COc1ccc(S(=O)(=O)CCC(=O)Nc2c(C)n(C)n(-c3ccccc3)c2=O)cc1`, for which the AC50 is 0.501 µM [falling, full curve].
For the molecule `CCOc1ccc(-c2nnc(N)o2)cc1`, the AC50 was 5.01 µM [falling, single point].
Turning to `COc1ccc(-c2nc(C#N)c(NCc3ccc(C)cc3)o2)cc1OC`, the AC50 was 2 µM [rising, full curve].
As for `COc1cccc(C2=NOC(C(=O)Nc3cc(C)nn3-c3ccccc3)C2)c1OC` (stereo not drawn), the AC50 is 2.51 µM [rising, full curve].
Regarding `CCN(CC)CCNC(=O)NC1CCCCC1`, the AC50 is 0.126 µM [rising, full curve].
Turning to `COc1ccccc1-c1cc(C(=O)N2CCc3ccccc3C2)no1`, the AC50 was 12.6 µM [falling, single point].
Take `COc1ccc2cc3c(N)c(C(=O)NCc4ccco4)sc3nc2c1`: the AC50 was 12.6 µM [rising, partial curve].
On to `CCOC(=O)c1ccccc1NC(=O)CN1CCC(n2nnc3cc(F)ccc32)CC1`, for which the AC50 is 2.51 µM [rising, partial curve].
Then `CCc1nc2ccc(C(=O)NCc3ccco3)cc2nc1CC`, with 12.6 µM [rising, partial curve]; and `CCCCn1c(SCC(=O)OCC)nc2c1c(=O)[nH]c(=O)n2C`, with 5.01 µM [rising, partial curve]; and `O=C1CCN(S(=O)(=O)c2ccccc2)C2CCCCC12` (stereo not drawn), with 12.6 µM [falling, partial curve].
On to `COc1ccc(Nc2nc(N3CCCC3)nc3ccccc23)c(OC)c1`, for which the AC50 is 2.51 µM [rising, full curve].
Then `O=c1c(-c2cccc(F)c2)nc2cncnc2n1Cc1ccccc1`, with 12.6 µM [rising, single point].
On to `CCc1nc(N)c(C#N)c(-c2cccn2C)c1C`, for which the AC50 was 12.6 µM [rising, partial curve].
Regarding `COc1ccccc1NC(=O)COc1ccc(/C=N/n2cnnc2)cc1OC`, the AC50 was 1 µM [rising, full curve].
Consider `C=CCn1c(SCC(=O)OCc2ccccc2)nc2c1c(=O)n(C)c(=O)n2C`, for which the AC50 is 10 µM [rising, partial curve, poor fit].
Then `CC(C)c1cccc2nc3c(c([Si](C)(C)C(C)(C)C)c12)Cn1c-3cccc1=O`, with 15.8 µM [rising, partial curve].
As to `Cn1c(NC(=O)C2c3ccccc3Oc3ccccc32)cc(=O)n(C)c1=O`, the AC50 is 0.126 µM [rising, full curve, poor fit].
For `COc1ccc(Oc2ncc3nc(-c4ccc(F)cc4)c(=O)n(CCC#N)c3n2)cc1`, the AC50 was 15.8 µM [rising, partial curve].
Regarding `CCOc1cc(N2CCOCC2)c(OCC)cc1NC(=O)Cc1ccc(OC)c(OC)c1`, the AC50 is 5.01 µM [falling, single point].
For the molecule `Cn1c(=O)[nH]c(=O)c2c1nc(CN1CCOCC1)n2Cc1ccc(F)cc1`, the AC50 is 7.94 µM [rising, partial curve].
For `COc1cccc2c(=O)n(CC(=O)NC3CCCC3)ccc12`, the AC50 is 10 µM [rising, single point].
Consider `COc1ccc(Cc2nnc(Nc3ccc(C)cc3C)[nH]c2=O)cc1`, for which the AC50 is 0.00631 µM [falling, full curve, poor fit].
For the molecule `CCN(C(=O)COC(=O)c1cc(C)n(-c2ccc(F)cc2)c1C)C1CCS(=O)(=O)C1` (stereo not drawn), the AC50 was 12.6 µM [rising, single point].
As for `CCOC(=O)c1[nH]c2cc3c(cc2c1CCCN1C(=O)c2ccccc2C1=O)OCCO3`, the AC50 was 12.6 µM [rising, partial curve].
Consider `CCCn1c(C)nc2c(NCCCN(CCO)CCO)nc(C)nc21`, for which the AC50 is 10 µM [rising, partial curve].
With `O=c1c(-c2ccc(Cl)cc2)nc2cnc(N3CCOCC3)nc2n1Cc1ccc(F)cc1`, the AC50 was 12.6 µM [rising, partial curve].
The result for `Cn1c(=O)n(Cc2ccccc2)c(=O)c2c1nc1n2CCCN1C1CCCCC1` reads 1.58 µM [rising, partial curve]; that for `CC1=C(C(=O)OCc2ccccc2)C(c2ccco2)C2=C(CC(C)(C)CC2=O)N1` (stereo not drawn), 25.1 µM [falling, single point]; that for `O=C(Nc1ccc(Cl)cc1F)C1CCN(S(=O)(=O)c2cccnc2)CC1`, 3.16 µM [falling, partial curve].
In the case of `CCOc1ccc(N2C(=O)CC(/C=C3/N(C)c4ccccc4C3(C)C)C2=O)cc1` (stereo not drawn), the AC50 is 0.1 µM [rising, full curve, poor fit].
For `COC(=O)C1=C(C)NC(=O)NC1c1ccccc1` (stereo not drawn), the AC50 was 3.16 µM [falling, partial curve].
The result for `c1cnc(N2CCN(Cc3c[nH]c4ccccc34)CC2)nc1` reads 25.1 µM [falling, single point].
The result for `COc1ccccc1N1CCN(c2cc(=O)n(-c3ccccc3Cl)c(=O)[nH]2)CC1` reads 5.01 µM [rising, single point]; that for `CCOC(=O)c1c(C)c(C(=O)Nc2ccc(N(C)C)cc2)c(C)n1CC`, 10 µM [rising, partial curve].
`CC(NC(=O)COc1cc(=O)n(C)c2ccccc12)c1ccc2c(c1)OCCO2` (stereo not drawn): the AC50 is 6.31 µM [rising, partial curve].
On to `COc1ccc(S(=O)(=O)CCC(=O)N2c3ccccc3CC2C)cc1` (stereo not drawn), for which the AC50 was 0.501 µM [falling, full curve].
Take `CCCc1cc(=O)oc2cc3occ(C)c3cc12`: the AC50 was 12.6 µM [rising, partial curve].
Then `Cc1ccc2nc3c(cc(C(=O)NCc4ccccc4)c(=N)n3CCCn3ccnc3)c(=O)n2c1`, with 15.8 µM [rising, single point]; and `Cc1nn(CC(O)Cn2cnc3c2c(=O)n(C)c(=O)n3C)c(C)c1Br` (stereo not drawn), with 0.00398 µM [falling, full curve, poor fit].
Regarding `Cc1cc(=O)oc2cc(Oc3ncccn3)ccc12`, the AC50 is 0.794 µM [rising, full curve].
The result for `O=c1c2c3c(sc2n(CCN2CCOCC2)c(=O)n1Cc1ccco1)CCCCC3` reads 10 µM [rising, partial curve]; that for `CCOC(=O)c1oc2ccc(S(=O)(=O)N3CCOCC3)cc2c1C`, 25.1 µM [rising, single point].
As for `CCN(CC)C(=O)C1CCCN(Cc2ccc(N(C)C)cc2)C1` (stereo not drawn), the AC50 is 1.26 µM [falling, partial curve, poor fit].
For the molecule `COCCn1c(=O)c(CCc2ccccc2)nc2cnc(Nc3ccccc3)nc21`, the AC50 was 3.16 µM [rising, full curve].
The result for `O=C(Nc1nc(-c2ccco2)c(-c2ccco2)s1)C1CC(=O)N(c2ccc3c(c2)OCCO3)C1` (stereo not drawn) reads 5.01 µM [falling, single point]; that for `CC(=O)c1c[nH]c2ccc(C)cc2c1=O`, 3.98 µM [rising, single point].
`c1ccc(Nc2cccc3ccccc23)cc1`: the AC50 is 10 µM [rising, partial curve].
The result for `CN1CCN(S(=O)(=O)c2cccc(S(=O)(=O)c3ccc(Cl)c(Cl)c3)c2)CC1` reads 0.794 µM [rising, partial curve]; that for `CCCC(=O)Nc1nc2ccc3nc(C)sc3c2s1`, 10 µM [rising, single point].
Regarding `Cn1c(=O)c2c(nc(NCc3ccccc3)n2C)n(C)c1=O`, the AC50 is 12.6 µM [rising, single point].
